For the test, the target named is T1, β4-S142F (pre1-1) with FLAG-6xHis-tag (S. cerevisiae, UniProt P22141 1-198, S142F).
T1 construct: Pre1/β4, S. cerevisiae, mutant version of the pre1-1 strain; also called pre1-1-FH; Pre1/β4 (β4-S142F)
T1 sequence: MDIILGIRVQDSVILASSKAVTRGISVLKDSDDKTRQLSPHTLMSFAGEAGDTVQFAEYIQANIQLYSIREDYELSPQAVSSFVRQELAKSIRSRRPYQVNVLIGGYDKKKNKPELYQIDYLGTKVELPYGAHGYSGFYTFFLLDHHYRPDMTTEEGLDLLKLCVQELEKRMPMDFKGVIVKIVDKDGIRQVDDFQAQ
The test is described as follows: affinity purification with mass spectrometry; tandem affinity purification (FLAG, 6xHis on β4) from pre1-1 cells overexpressing Pba1-Pba2, separation by native PAGE, bands evaluated by MS.

The chains behind the UniProt entries cited, without tags or fusion partners.
UniProt P36040: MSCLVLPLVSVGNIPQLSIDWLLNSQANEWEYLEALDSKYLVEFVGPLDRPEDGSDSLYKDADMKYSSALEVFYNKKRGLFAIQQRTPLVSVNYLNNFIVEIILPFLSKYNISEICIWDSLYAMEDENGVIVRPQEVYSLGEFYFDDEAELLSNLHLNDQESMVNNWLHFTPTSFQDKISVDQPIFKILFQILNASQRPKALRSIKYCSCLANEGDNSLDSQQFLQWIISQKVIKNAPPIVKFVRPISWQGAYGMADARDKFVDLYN

Results are given in words; binding and its absence hold for the method and conditions named. Binding seen in cells or lysates may run through a third protein. These calls come from enrichment with a bait or labelling near it, and not all partners need be listed. Where a sequence is shown, tags or fusion partners need not be part of it.

From paper PMC11391049 (Life Science Alliance, 2024) come the findings set out here.

Regarding Pba2 (from UniProt P36040 1-267), the binding entry was “binds”.

B1: Pba1 (protein, UniProt Q05778 1-276)
chain: MLFKQWNDLPEPKHLLDLPEISKNLQSLEVCPVPKVEFPQDLDVPQYSTAVITTKIMNPLFPKNLLQLTSIGEIKTTLTVKSPSLPQSSGKHSWNYDENFPNEVDPDQKNDTADETVYGFSFPIYSFGKTLLFSMEENFISISPIFGNMISRSIISQLAQFSPDIIVIGTSDKIASMKVMTENECTLQPPEFITGFIGSVLTQLIVGPSKGLKFKCLVAPSEGPNGFEKLSLSDMGSLVDLCGQWLGFEPSRYSEECYRLWRCDSAAIGAQSGLYI
With B1, the binding entry is “binds”.
